Test results reported in publication PMC4094623.
No constants are given. Whether binding was seen depends on the method and setting. For some of these results: Binding calls can cover weak binding; strength is not graded here. For some of these results: In cells and extracts the contact can be indirect. For some of these results: Tags and fused reporters may be left off the sequences shown. Each block holds one binder with its values, some of them ahead of it.

Sequences of proteins named here, by UniProt entry; tags and fusion partners are left off. A change or cut given only in a name is not applied to a line headed by its entry.
UniProt Q5QM06: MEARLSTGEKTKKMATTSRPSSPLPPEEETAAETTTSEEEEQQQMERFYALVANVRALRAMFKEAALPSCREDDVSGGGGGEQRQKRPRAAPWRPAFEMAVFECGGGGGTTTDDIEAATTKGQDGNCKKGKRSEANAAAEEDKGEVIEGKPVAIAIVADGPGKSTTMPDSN
UniProt Q6L589: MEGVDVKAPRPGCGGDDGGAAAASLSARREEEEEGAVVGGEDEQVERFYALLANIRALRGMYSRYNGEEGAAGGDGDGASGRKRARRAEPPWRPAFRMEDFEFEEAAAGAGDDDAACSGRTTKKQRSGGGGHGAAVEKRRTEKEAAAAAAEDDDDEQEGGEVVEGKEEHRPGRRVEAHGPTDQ
UniProt Q5ZEF1: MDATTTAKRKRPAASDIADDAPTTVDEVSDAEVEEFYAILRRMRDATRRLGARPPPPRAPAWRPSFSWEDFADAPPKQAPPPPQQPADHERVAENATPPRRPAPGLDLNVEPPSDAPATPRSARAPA
UniProt B7F924: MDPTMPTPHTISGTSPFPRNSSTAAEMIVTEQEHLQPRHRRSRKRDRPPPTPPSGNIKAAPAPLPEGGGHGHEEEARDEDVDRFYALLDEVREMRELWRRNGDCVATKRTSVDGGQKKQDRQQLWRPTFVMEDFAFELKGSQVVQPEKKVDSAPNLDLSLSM

How the values were obtained:
[1] = target: TGAL1 (rice (Nipponbare)); assay: two-hybrid; LexA fusion (written as target) and B42AD fusion (written as binder) in yeast EGY48; beta-galactosidase on X-gal medium, blue colour graded +++ to –; at least three colonies
[2] = target: TGAL4 (rice (Nipponbare)); assay: as above
[3] = target: TGAL5 (rice (Nipponbare)); assay: as above
[4] = target: TGAL8 (rice (Nipponbare)); assay: as above
[5] = target: RH2 (rice (Nipponbare)) (UniProt Q5QM06); assay: as above
[6] = target: rTGA2.1 (rice (Nipponbare)); assay: as above
[7] = target: rTGA2.2 (rice (Nipponbare)); assay: as above
[8] = target: RH1 (rice (Nipponbare)) (UniProt Q6L589); assay: as above
[9] = target: rTGA2.3 (rice (Nipponbare)); assay: as above
[10] = target: TGAL9 (rice (Nipponbare)); assay: as above
[11] = target: TGAL7 (rice (Nipponbare)); assay: as above
[12] = target: TGAL6 (rice (Nipponbare)); assay: as above
[13] = target: rLG2 (rice (Nipponbare)); assay: as above
[14] = target: TGAL11 (rice (Nipponbare)); assay: as above
[15] = target: Negative Regulator of Resistance (NRR) (rice (Nipponbare)) (UniProt Q5ZEF1); assay: as above
[16] = target: RH3 (rice (Nipponbare)) (UniProt B7F924); assay: as above
[17] = target: TGAL2 (rice (Nipponbare)); assay: as above
[18] = target: TGAL4 (split YFP fusion) (rice (Nipponbare)); assay: split reporter; split YFP in rice protoplasts, 5 ug of each plasmid, 24-36 hr after transfection, fluorescence graded +++ to –; the YFPN fusion is written as binder, the YFPC fusion as target
[19] = target: TGAL5 (split YFP fusion) (rice (Nipponbare)); assay: as above
[20] = target: NRR (split YFP fusion) (rice (Nipponbare)); assay: as above
[21] = target: rTGA2.3 (split YFP fusion) (rice (Nipponbare)); assay: as above
[22] = target: rTGA2.1 (split YFP fusion) (rice (Nipponbare)); assay: as above
[23] = target: RH1 (split YFP fusion) (rice (Nipponbare)); assay: as above
[24] = target: RH2 (split YFP fusion) (rice (Nipponbare)); assay: as above
[25] = target: rLG2 (split YFP fusion) (rice (Nipponbare)); assay: as above
[26] = target: RH3 (split YFP fusion) (rice (Nipponbare)); assay: as above
[27] = target: TGAL2 (split YFP fusion) (rice (Nipponbare)); assay: as above
[28] = target: rTGA2.2 (split YFP fusion) (rice (Nipponbare)); assay: as above
[29] = target: TGAL1 (split YFP fusion) (rice (Nipponbare)); assay: as above

- binding [1]: binds
- binding [2]: binds
- binding [3]: binds
- binding [4]: binds
- binding [5]: binds
- binding [6]: binds
- binding [7]: binds
- binding [8]: binds
- binding [9]: binds
- binding [10]: no binding
- binding [11]: binds
- binding [12]: binds
- binding [13]: binds
- binding [14]: binds
- binding [15]: binds
- binding [16]: binds
- binding [17]: binds
B1: NH2 (protein, UniProt Q0JJ01 1-635)
chain: MPARSAVVVIAMEPSSSITIASSSSYLSNGSSPCSVSLAPPGAGAVAAQAAPVAAGEGGGGGGGGGGGGSSSVEVVSLNRLSANLERLLLDSDLDCSDADVDVADGGPPVPVHRCILAARSTFFYNLFAARGRGGDGAAGGGGGGGGGGGERTGGRPRYKMEELVPGGRVGRDAFLSLLGYLYTGKLRPAPDDVVSCADPMCPHDSCPPAIRFNVEQMYAAWAFKITELISLFQRRLLNFVDKTLVEDVLPILQVAFHSELTPVLEKCIRRIARSNLDNVSLDKELPPEVAVQIKEIRQKSQPNEGDTVISDPVHEKRVRRIHRALDSDDVELVKLLLNESEITLDDANALHYAAAYCDSKVVSELLDLRLANLNLKNSRGYTALHLAAMRREPAIIMCLLNKGAAVSQLTADGQSAMSICRRLTRMKDYNTKMEQGQESNKDRLCIDILDREMIRKPMAVEDSVTSPLLADDLHMKLLYLENRVAFARLFFPAEAKVAMQIAQADTTPEFGIVPAASTSGKLKEVDLNETPVTQNKRLRSRVDALMKTVELGRRYFPNCSQVLDKFLEDDLPDSPDALDLQNGTSDEQNVKRMRFCELKEDVRKAFSKDRADNSMFSILSSSSSSSPPPKVAKK

- binding [1]: binds
- binding [2]: binds
- binding [3]: binds
- binding [4]: binds
- binding [5]: binds
- binding [6]: binds
- binding [7]: binds
- binding [8]: binds
- binding [9]: binds
- binding [10]: no binding
- binding [11]: binds
- binding [12]: binds
- binding [13]: binds
- binding [14]: binds
- binding [15]: binds
- binding [16]: binds
- binding [17]: binds
B2: NH3 (protein, UniProt Q75HA6 1-589)
chain: METSTISFSSSSPPSPPPPQPAPGDIDAVSLGRLSRNLENLLDPAFLNCADAEIVLASGGGDPGGGAVVGVHRCILAARSRFFYDHFSSAPAPAPATAGDKPQLDLDGLVPGGRHIGRDALVAVLSYLYTGRLRSAPPEAAACLDDGCSHDACRPAIDFVVESTYAASGFQISELVSLFQRRLSDFVNKALAEDILPILVVASTCHLPELLNQCIQRVANSNLDNRYLEKRLPDDLYAKLKEFRVPDEPHSGILDPEHEKRVRNIHKALDSDDVDLVGMLLKESPVTLDDAFAIHYAAAYCEPKVLAELLKLESANVNLKNSSGYTPLHMACMRREPDIIVSLIEKGASVLERTQDGRDALTICKRLTREKDRNEKSEKCKERSKAYLCIGVLQQEIKRRPQILEDQMSAEESIATPLLVDNFHMRLLNLENRVAFARIFFPSEAKLVMRIAQADSTQEFAGLTSANFSKLKEVDLNETPTMQNRRLRERLDALTKTVELGRRYFPHCSEVLDKFLNEESTDLILLESGTAEDQQTKRMRFSELREDVRKAFTKDKAAGAAISSSTSASSSPRYETKLRPGNKKGKLSR

- binding [18]: binds
- binding [19]: binds
- binding [20]: binds
- binding [21]: binds
- binding [22]: binds
- binding [23]: binds
- binding [24]: binds
- binding [25]: binds
- binding [26]: binds
- binding [27]: binds
- binding [28]: binds
- binding [29]: binds
B3: NH3 (split YFP fusion) (protein, UniProt Q75HA6 1-589)
chain: B2 chain
